We go through two molecules from patent US20090081707A1 (published 2009).

The chains behind the UniProt entries cited, without tags or fusion partners. Where a name states a change or a piece, a line headed by the entry shows the natural chain unless it says otherwise.
UniProt Q16620: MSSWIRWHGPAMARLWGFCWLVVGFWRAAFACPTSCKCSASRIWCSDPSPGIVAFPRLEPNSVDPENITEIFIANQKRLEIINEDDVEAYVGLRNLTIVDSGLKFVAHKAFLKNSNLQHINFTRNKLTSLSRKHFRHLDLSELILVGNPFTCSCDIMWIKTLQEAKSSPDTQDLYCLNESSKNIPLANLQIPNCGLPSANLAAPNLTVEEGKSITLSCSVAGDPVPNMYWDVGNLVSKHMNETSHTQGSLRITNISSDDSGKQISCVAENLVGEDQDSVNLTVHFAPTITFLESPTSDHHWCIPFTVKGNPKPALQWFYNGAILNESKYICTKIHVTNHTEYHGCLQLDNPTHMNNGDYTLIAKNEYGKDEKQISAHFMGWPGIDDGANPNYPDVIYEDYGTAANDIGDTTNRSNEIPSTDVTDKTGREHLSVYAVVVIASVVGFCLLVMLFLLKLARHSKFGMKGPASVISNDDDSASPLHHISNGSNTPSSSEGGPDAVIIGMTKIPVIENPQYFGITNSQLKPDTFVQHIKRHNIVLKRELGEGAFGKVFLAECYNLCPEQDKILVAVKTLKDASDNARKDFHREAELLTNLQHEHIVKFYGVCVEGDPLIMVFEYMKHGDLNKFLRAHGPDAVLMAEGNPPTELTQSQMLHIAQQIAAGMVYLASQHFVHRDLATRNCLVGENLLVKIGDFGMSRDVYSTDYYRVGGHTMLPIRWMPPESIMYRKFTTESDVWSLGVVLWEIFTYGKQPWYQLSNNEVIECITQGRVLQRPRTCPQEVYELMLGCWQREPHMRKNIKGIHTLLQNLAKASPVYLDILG
UniProt P18280: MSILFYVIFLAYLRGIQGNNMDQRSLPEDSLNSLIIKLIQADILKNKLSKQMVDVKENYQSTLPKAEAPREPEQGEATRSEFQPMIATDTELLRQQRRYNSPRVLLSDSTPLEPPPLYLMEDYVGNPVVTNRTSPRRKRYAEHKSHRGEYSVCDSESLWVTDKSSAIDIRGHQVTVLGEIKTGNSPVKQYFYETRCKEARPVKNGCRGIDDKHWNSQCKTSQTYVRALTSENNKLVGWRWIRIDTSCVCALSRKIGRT

Results are given in words; binding and its absence hold for the method and conditions named. Some binding calls cover weakened binding; strength is not graded here.

The target in this test is trkB-IgG immunoadhesin (chimera of human trkB extracellular domain with human IgG-1 Fc) (human) (UniProt Q16620). Kind of test: competitive displacement of iodinated neurotrophin from trk-IgG.

For the molecule “neurotrophin-3 (NT-3) (from UniProt P18280 140-258) (ligand)”, the binding result is listed as “binds”.

B1: neurotrophin-4/5 (NT-4/5) (ligand)
chain: GVSETAPASRRGELAVCDAVSGWVTDRRTAVDLRGREVEVLGEVPAAGGSPLRQYFFETRCKADNAEEGGPGAGGGGCRGVDRRHWVSECKAKQSYVRALTADAQGRVGWRWIRIDTACVCTLLSRTGRA
notes: also called NT5
Consider B1, for which the binding entry is given as “binds”.
